PubChem BioAssay AID504786, Drosophila RNAi Screening Center – 2011
Test: 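Knock-downs reducing HIF reporter induction by the iron chelator DFO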 (primary screen). Cell system: Drosophila S2 cells with a stable HIF luciferase reporter. Knock-down reagent: long dsRNA against Drosophila genes, about 0.2 µg dsRNA per well of a 384-well plate. Time to read-out: three days of knock-down, then 20 h of DFO before reading. Treatment: desferrioxamine (DFO) at 100 µM, an iron chelator that mimics hypoxia, for 20 h. Detection: 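HIF reporter luminescence in cells given 100 µM DFO for 20 h, using the mouse ldh-a hypoxia-response element, scored as per-plate z-scores; higher means greater loss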. Direction: z-score: higher = stronger loss of HIF reporter signal.
The screen tested about 21,000 reagents; below is a random part of those that have a named target and a result. 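Primary screen; positive scores mean lost reporter signal, so the sign may be inverted from the usual convention.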 A plus sign joins genes that one reagent is predicted to hit.

The opening 2 entries as a preview:
CG1607 [SID104194922] | z-score, replicate 1 = -0.3; z-score, replicate 2 = -0.6
Ubqn [SID104199373] | z-score, replicate 1 = 0.8; z-score, replicate 2 = 1.3

The listing, from the first entry:
CG1607 [SID104194922] | z-score, replicate 1 = -0.3; z-score, replicate 2 = -0.6
Ubqn [SID104199373] | z-score, replicate 1 = 0.8; z-score, replicate 2 = 1.3
snsl [SID104180335] | z-score, replicate 1 = -0.3; z-score, replicate 2 = 0.3
GlyT [SID104184304] | z-score, replicate 1 = -0.3; z-score, replicate 2 = -0.5
CG13775 [SID104182071] | z-score, replicate 1 = -0.1; z-score, replicate 2 = 0
RpL10Ab [SID104190590] | z-score, replicate 1 = 6.5; z-score, replicate 2 = 7.1
CG43861 + CG12508 (retired record) [SID104181962] | z-score, replicate 1 = -0.3; z-score, replicate 2 = 0
Taf12 [SID104196671] | z-score, replicate 1 = 0.5; z-score, replicate 2 = 0.9
Gcn5 [SID104191040] | z-score, replicate 1 = 0.4; z-score, replicate 2 = 1
B4 [SID104181660] | z-score, replicate 1 = -0.2; z-score, replicate 2 = 0.1
B4 [SID104182967] | z-score, replicate 1 = -0.3; z-score, replicate 2 = -0.4
Pdk [SID104187296] | z-score, replicate 1 = -0.3; z-score, replicate 2 = -0.8
Vps2 [SID104194678] | z-score, replicate 1 = -0.3; z-score, replicate 2 = 1.7
CG30127 (retired record) [SID104185577] | z-score, replicate 1 = 0.1; z-score, replicate 2 = -0.2
CG30127 (retired record) [SID104185578] | z-score, replicate 1 = 2.6; z-score, replicate 2 = 1.5
Sply [SID104187091] | z-score, replicate 1 = 0; z-score, replicate 2 = -0.3
